The values that follow come from US20150218629.

Numbering of substitutions follows the chain as printed. The exact form of at least one protein or probe is not confirmed. Protein sequences can lack the tags named with them.

For series [1], the target named is T1, Hel308 Mbu A700C 2 kDa PEG homodimer (Methanococcoides burtonii) (UniProt Q12WZ6).
T1 sequence (limits assumed): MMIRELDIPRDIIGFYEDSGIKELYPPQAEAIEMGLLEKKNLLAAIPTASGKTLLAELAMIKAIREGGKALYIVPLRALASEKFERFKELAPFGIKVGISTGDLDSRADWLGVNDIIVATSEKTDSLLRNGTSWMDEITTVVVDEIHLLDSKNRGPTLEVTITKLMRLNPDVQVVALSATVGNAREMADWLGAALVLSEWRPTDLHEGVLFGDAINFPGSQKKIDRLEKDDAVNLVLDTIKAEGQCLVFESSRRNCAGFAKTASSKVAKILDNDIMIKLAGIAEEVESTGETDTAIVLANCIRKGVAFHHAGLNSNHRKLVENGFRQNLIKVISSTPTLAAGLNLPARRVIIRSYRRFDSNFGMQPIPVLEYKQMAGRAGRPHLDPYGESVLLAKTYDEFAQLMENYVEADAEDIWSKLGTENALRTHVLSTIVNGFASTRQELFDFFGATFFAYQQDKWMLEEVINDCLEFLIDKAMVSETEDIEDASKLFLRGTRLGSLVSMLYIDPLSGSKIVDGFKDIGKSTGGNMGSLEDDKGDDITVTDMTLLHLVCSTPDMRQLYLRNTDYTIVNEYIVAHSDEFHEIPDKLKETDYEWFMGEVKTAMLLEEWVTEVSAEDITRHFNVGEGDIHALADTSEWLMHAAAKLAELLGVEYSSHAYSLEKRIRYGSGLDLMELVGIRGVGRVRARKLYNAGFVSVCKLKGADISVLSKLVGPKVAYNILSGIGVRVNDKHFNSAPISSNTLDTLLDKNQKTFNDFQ
Briefly: activity assay. The settings on record: four 2'-O-methyl uracil at 5' end of SEQ 70; MspA nanopore; percent of helicase-controlled movements reaching polyT; 10 nM enzyme, 1 M KCl, 1 mM ATP, 10 mM MgCl2, +120 mV; purified recombinant protein; label: 3' cholesterol TEG on SEQ 71.

Series [2] deals with T2, Hel308 Mbu monomer (Methanococcoides burtonii) (UniProt Q12WZ6).
T2 sequence (limits assumed): T1 sequence (limits assumed) with C700A
As to the kind of experiment: activity assay. The settings on record: four 2'-O-methyl uracil at 5' end of SEQ 70; MspA nanopore; percent of helicase-controlled movements reaching polyT; 100 nM enzyme, 1 M KCl, 1 mM ATP, 10 mM MgCl2, +120 mV; purified recombinant protein; label: 3' cholesterol TEG on SEQ 71.

For series [3], the target named is T3, Hel308 Mbu Q442C 3.4 kDa PEG homodimer (Methanococcoides burtonii) (UniProt Q12WZ6).
T3 sequence (limits assumed): T1 sequence (limits assumed) with Q442C, C700A
Briefly: binding assay. The settings on record: four 2'-O-methyl uracil at 5' end of SEQ 70; MspA nanopore controlled DNA movement; about 1 nM enzyme, 400 mM KCl, 1 mM ATP, 1 mM MgCl2, +180 mV; purified recombinant protein; label: 3' cholesterol TEG on SEQ 71.

In series [4] the target is T4, Hel308 Mbu Q442C 2 kDa PEG homodimer (Methanococcoides burtonii) (UniProt Q12WZ6).
T4 sequence (limits assumed): T1 sequence (limits assumed) with Q442C, C700A
Briefly: binding assay. The settings on record: four 2'-O-methyl uracil at 5' end of SEQ 70; MspA nanopore controlled DNA movement; about 1 nM enzyme, 400 mM KCl, 1 mM ATP, 1 mM MgCl2, +180 mV; purified recombinant protein; label: 3' cholesterol TEG on SEQ 71.

Series [5] deals with T5, Hel308 Mbu + 5th domain Hel308 Hvo (Methanococcoides burtonii / Haloferax volcanii) (UniProt Q12WZ6).
T5 sequence: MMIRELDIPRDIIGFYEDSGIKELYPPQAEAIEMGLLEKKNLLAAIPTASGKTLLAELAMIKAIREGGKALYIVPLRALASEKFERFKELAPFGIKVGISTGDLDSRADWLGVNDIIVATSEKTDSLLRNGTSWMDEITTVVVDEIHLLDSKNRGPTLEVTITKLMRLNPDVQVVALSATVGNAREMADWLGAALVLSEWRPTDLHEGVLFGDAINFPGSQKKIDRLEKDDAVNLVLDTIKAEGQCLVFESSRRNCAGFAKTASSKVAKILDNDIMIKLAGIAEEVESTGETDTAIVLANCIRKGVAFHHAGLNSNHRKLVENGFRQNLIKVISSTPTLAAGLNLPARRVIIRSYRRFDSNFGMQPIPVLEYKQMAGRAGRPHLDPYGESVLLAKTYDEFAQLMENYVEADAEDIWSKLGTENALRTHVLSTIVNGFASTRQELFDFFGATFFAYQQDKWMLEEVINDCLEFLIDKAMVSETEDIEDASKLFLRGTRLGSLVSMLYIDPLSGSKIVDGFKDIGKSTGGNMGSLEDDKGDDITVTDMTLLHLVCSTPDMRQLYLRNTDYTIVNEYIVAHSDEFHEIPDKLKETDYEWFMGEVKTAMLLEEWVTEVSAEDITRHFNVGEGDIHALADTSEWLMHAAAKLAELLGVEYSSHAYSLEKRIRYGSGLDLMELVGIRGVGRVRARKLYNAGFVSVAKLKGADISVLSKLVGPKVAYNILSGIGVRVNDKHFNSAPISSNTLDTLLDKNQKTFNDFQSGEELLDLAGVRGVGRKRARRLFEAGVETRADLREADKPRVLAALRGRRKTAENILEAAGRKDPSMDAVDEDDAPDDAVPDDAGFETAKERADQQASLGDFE
Briefly: binding assay. The settings on record: four 2'-O-methyl uracil at 5' end of SEQ 70; MspA nanopore controlled DNA movement; 100 nM enzyme, 400 mM NaCl, 1 mM ATP, 1 mM MgCl2, +140 mV; purified recombinant protein; protein details: 5th domain of Hel308 Hvo fused to C-terminus; label: 3' cholesterol TEG on SEQ 71.

“TTTTTTTTTTTTTTTTTTTTTTTTTTTTTTTTTTTTTTTTTTTTTGCCATCAGATTGTGTTTGTTAGTCGCTGGTTGTTTCTGTTGGTGCTGATATTGCTTTTGATGCCGACCCTAAATTTTTTGCCTGTTTGGTTCGCTTTGAGTCTTCTTCGGTTCCGACTACCCTCCCGACTGCCTATGATGTTTATCCTTTGAATGGTCGCCATGATGGTGGTTATTATACCGTCAAGGACTGTGTGACTATTGACGTCCTTCCCCGTACGCCGGGCAATAACGTTTATGTTGGTTTCATGGTTTGGTCTAACTTTACCGCTACTAAATGCCGCGGATTGGTTTCGCTGAATCAGGTTATTAAAGAGATTATTTGTCTCCAGCCACTTAAGTGAGGTGATTTATGTTTGGTGCTATTGCTGGCGGTATTGCTTCTGCTCTTGCTGGTGGCGCCATGTCTAAATTGTTTGGAGGCGGTCTTTTTCCCCCTTTTTCCCCCTTTTTCCCCCTTTTTCCCCCTTTTTCCCCC / AGCGACTAACAAACACAATCTGATGGCTTTTTTTTTTTTTTTTTTTTTTTTTTTTTT”: the figures for the activity on this sequence in series [1] and in series [2] were 47% and 37%, respectively. For the same sequence, the binding result in series [3], in series [4] and in series [5] was “binds” throughout.
